Laboratory results as given in the supplement of paper PMC5949888.
Most values lie at the floor of the assay. Slopes are relative: functional sequences can read slightly below zero.

system: Saccharomyces cerevisiae PS128 hsf1 delta, HSF1(1-493) fusion; experiment: growth estimate (transactivation domain function in HSF1 fusion, heat-shock survival) (a.u. (slope of normalised read count over time)); higher = stronger growth at 37°C, i.e. more transactivation activity; details: library: random library

For QTKLADGVD, which growth estimate is on record?
The growth estimate was -0.246.

With RWVLEILTWVKRNAYYVPSC as the substance, how does the growth estimate read?
The growth estimate was < -0.25.

With EPWSAGGLFAVKRIDTCLAL as the substance, how does the growth estimate read?
The growth estimate was < -0.25.

How did the growth estimate turn out when TVTF was run?
The growth estimate was < -0.25.

With GYGPIVSRPHSRPCHCCSSR as the substance, how does the growth estimate read?
The growth estimate was < -0.25.

Which growth estimate does the source give for DGLQYRHVWCKVMIG here?
Its growth estimate is < -0.25.

AVI was tested. Which growth estimate did it give?
The growth estimate was -0.191.

With GCIFSANYPMAIKYG as the substance, how does the growth estimate read?
Its growth estimate is < -0.25.

With LGQTT as the substance, how does the growth estimate read?
The growth estimate was < -0.25.

With RYILTRPACGATHAAEA as the substance, how does the growth estimate read?
The growth estimate was < -0.25.

For SLFQYCRSDMLGWLRPSSLR, which growth estimate is on record?
The growth estimate was < -0.25.

RSLAPMRKTACNRTITISGV was tested. Which growth estimate did it give?
Its growth estimate is < -0.25.

Which growth estimate does the source give for PGVIDCQGLWPFIN here?
The growth estimate was < -0.25.

For LKGSWAPSLD, which growth estimate is on record?
The growth estimate was -0.0394.

Which growth estimate does the source give for GNAVTPYLRGDLG here?
Its growth estimate is < -0.25.

EWALQFRI was tested. Which growth estimate did it give?
Its growth estimate is < -0.25.

How did the growth estimate turn out when EDGIIVYTARVIKLFRSDTV was run?
Its growth estimate is -0.218.

How did the growth estimate turn out when GGGGSVCAGSERSPPAKRYT was run?
The growth estimate was < -0.25.

FRLQEAMCLLHPR was tested. Which growth estimate did it give?
Its growth estimate is -0.192.

How did the growth estimate turn out when LVQ was run?
Its growth estimate is < -0.25.

LCKPITLQIY was tested. Which growth estimate did it give?
The growth estimate was < -0.25.

VSGRFAHAEAPGSVAHP was tested. Which growth estimate did it give?
The growth estimate was < -0.25.

With ATRISESECDLT as the substance, how does the growth estimate read?
Its growth estimate is -0.24.

How did the growth estimate turn out when VHV was run?
The growth estimate was < -0.25.

Which growth estimate does the source give for SEVCNGLVWWVVAGEGPVSG here?
The growth estimate was < -0.25.

VTFWRAILPRKLSVDR was tested. Which growth estimate did it give?
The growth estimate was -0.246.

With SAFCATAIYVQAFRLEKSAP as the substance, how does the growth estimate read?
The growth estimate was -0.243.

How did the growth estimate turn out when YSKCGYVVGINTRTCSQRLP was run?
Its growth estimate is < -0.25.

How did the growth estimate turn out when SLGKYEARH was run?
The growth estimate was < -0.25.

How did the growth estimate turn out when YHFDRAAARRQDKAHKN was run?
The growth estimate was 4.7.

How did the growth estimate turn out when WEGDKTL was run?
The growth estimate was < -0.25.

How did the growth estimate turn out when RGQTPLSSVTQPSHPGCLAS was run?
The growth estimate was < -0.25.

Which growth estimate does the source give for PPDDQRTLVR here?
Its growth estimate is < -0.25.

How did the growth estimate turn out when WVIDVASHWNARAICLRRDP was run?
The growth estimate was < -0.25.

For GDRLR, which growth estimate is on record?
The growth estimate was < -0.25.

For NVGEWGKRFISGCFNRLNFA, which growth estimate is on record?
Its growth estimate is < -0.25.

With LFP as the substance, how does the growth estimate read?
Its growth estimate is < -0.25.

For SHPTAST, which growth estimate is on record?
Its growth estimate is < -0.25.

With VHVVQA as the substance, how does the growth estimate read?
The growth estimate was < -0.25.

With MCGVDTSRAVTRTADGAVV as the substance, how does the growth estimate read?
Its growth estimate is < -0.25.

How did the growth estimate turn out when LVQMGKRSTSVHQSYGPQLR was run?
The growth estimate was < -0.25.

For PDLCRGSVLPDHGYGPL, which growth estimate is on record?
The growth estimate was < -0.25.

IWIRHRGRTVACPA was tested. Which growth estimate did it give?
The growth estimate was < -0.25.

Which growth estimate does the source give for CPRGMQLLYVKG here?
Its growth estimate is < -0.25.

Which growth estimate does the source give for TCASAGALGSRVRNFRK here?
The growth estimate was -0.221.

PSEIGLWRPGVSVNS was tested. Which growth estimate did it give?
The growth estimate was < -0.25.

For SVVCNREMNGRSMDGFAKAR, which growth estimate is on record?
The growth estimate was < -0.25.

Which growth estimate does the source give for IRP here?
The growth estimate was < -0.25.

For PQRRKRDA, which growth estimate is on record?
The growth estimate was < -0.25.

With STGHFEAEQARPRIATVCA as the substance, how does the growth estimate read?
The growth estimate was < -0.25.

For FPRLF, which growth estimate is on record?
The growth estimate was < -0.25.

With HIKLCQSSIMGC as the substance, how does the growth estimate read?
Its growth estimate is < -0.25.

KRREQ was tested. Which growth estimate did it give?
Its growth estimate is < -0.25.

Which growth estimate does the source give for DSGGIDKSIHDPQNCLPGK here?
Its growth estimate is < -0.25.

With GEYDCVTALIAGPKHVAYFG as the substance, how does the growth estimate read?
Its growth estimate is < -0.25.

For QTLFRREVS, which growth estimate is on record?
Its growth estimate is < -0.25.

With HLDGFVLVPRLVAVRDDMAP as the substance, how does the growth estimate read?
The growth estimate was < -0.25.

With GGLDVRVVRYQILHRD as the substance, how does the growth estimate read?
Its growth estimate is < -0.25.

Which growth estimate does the source give for KRSDSRPSNPE here?
The growth estimate was < -0.25.

For SDMKRQMDES, which growth estimate is on record?
Its growth estimate is < -0.25.

For PACTPRTAVGTFASRTTRTH, which growth estimate is on record?
Its growth estimate is < -0.25.

How did the growth estimate turn out when IPIVCNWVSQDSYLSIRPVK was run?
The growth estimate was < -0.25.

How did the growth estimate turn out when WPFFGFLIRLVIPTEVAKRG was run?
The growth estimate was < -0.25.

How did the growth estimate turn out when RTAIASHEGHFIKADGSTRH was run?
The growth estimate was < -0.25.

With CQRRVHAYPPVARIGPRVST as the substance, how does the growth estimate read?
The growth estimate was < -0.25.

With QTLPRTGGSIIRVLNFSAAG as the substance, how does the growth estimate read?
The growth estimate was < -0.25.

RMIMKRPKVIFMASFVHLG was tested. Which growth estimate did it give?
Its growth estimate is -0.243.

How did the growth estimate turn out when IEAPVRLPTRAIYESGCARG was run?
The growth estimate was < -0.25.

How did the growth estimate turn out when NKPQAQGDVVSVLISRQLTP was run?
Its growth estimate is < -0.25.

How did the growth estimate turn out when SYGVLAVR was run?
Its growth estimate is < -0.25.

For RFPGCWCLRPDSRGNLSPSV, which growth estimate is on record?
Its growth estimate is < -0.25.

With PVRGAPVENNTAYSAPPHDR as the substance, how does the growth estimate read?
The growth estimate was < -0.25.

KELGLRSVPT was tested. Which growth estimate did it give?
Its growth estimate is < -0.25.

With LVCKGSKWC as the substance, how does the growth estimate read?
The growth estimate was < -0.25.

For LERLVLLEGHAP, which growth estimate is on record?
The growth estimate was < -0.25.

With HGERHLRSVPE as the substance, how does the growth estimate read?
The growth estimate was < -0.25.

How did the growth estimate turn out when KKGRECVRR was run?
Its growth estimate is -0.243.

GGWLKILPLPET was tested. Which growth estimate did it give?
Its growth estimate is < -0.25.

Which growth estimate does the source give for TCSQGPFRARGGRWMEHSSR here?
Its growth estimate is < -0.25.

With NQIFSYLATPHCWTFGGPSA as the substance, how does the growth estimate read?
The growth estimate was < -0.25.

Which growth estimate does the source give for EFEVIRWVEGTGVL here?
Its growth estimate is < -0.25.

For GHPTALHLPPELSPAERGER, which growth estimate is on record?
The growth estimate was < -0.25.

For CHVESKGTR, which growth estimate is on record?
The growth estimate was < -0.25.

How did the growth estimate turn out when TIN was run?
The growth estimate was < -0.25.

Which growth estimate does the source give for YTDLSGLSAPV here?
The growth estimate was < -0.25.

With DYCPP as the substance, how does the growth estimate read?
The growth estimate was < -0.25.

PGEIIFSDPSGPSECVIMRK was tested. Which growth estimate did it give?
The growth estimate was < -0.25.

LSATRPRGCGGPPGWPEGPH was tested. Which growth estimate did it give?
Its growth estimate is -0.231.

How did the growth estimate turn out when TNHTSRRPVNSFAGAQRTRI was run?
Its growth estimate is < -0.25.

With VTPLRILLRVSG as the substance, how does the growth estimate read?
The growth estimate was < -0.25.

For AAQLLCCGTRSVGHRRPPHS, which growth estimate is on record?
Its growth estimate is < -0.25.

MGPSRLGWVLWLCITELIEG was tested. Which growth estimate did it give?
Its growth estimate is < -0.25.

With GIRSA as the substance, how does the growth estimate read?
Its growth estimate is < -0.25.

How did the growth estimate turn out when ILANGVYLELRSVMAHRCPR was run?
The growth estimate was < -0.25.

With GLGRDRSI as the substance, how does the growth estimate read?
Its growth estimate is < -0.25.

For DYRVD, which growth estimate is on record?
The growth estimate was < -0.25.

Which growth estimate does the source give for RNDGIYFPPCDGPECRE here?
Its growth estimate is < -0.25.

For EARRLPGTKGRTLLSAWVQE, which growth estimate is on record?
The growth estimate was < -0.25.

How did the growth estimate turn out when EWISRFRYRNLMAWLVVSAV was run?
Its growth estimate is < -0.25.

Which growth estimate does the source give for IRVKETLPVPSGMQVLGKFT here?
The growth estimate was < -0.25.

How did the growth estimate turn out when RAHSVREPATRGRDQFVQ was run?
The growth estimate was < -0.25.

SSNSGNHGT was tested. Which growth estimate did it give?
Its growth estimate is < -0.25.
